## Drug screen on melanoma cell lines: apoptosis marker

From a melanoma drug combination screen (doi:10.1371/journal.pone.0140310); values rounded.

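The test systems are human melanoma cell lines, treated with two drugs together for 72 h and then stained and imaged. The read-out is the fraction of cleaved-PARP-positive nuclei, in % of that fraction in the DMSO control; 200 means twice the control level of this apoptosis marker. Every drug was used at one fixed concentration, the higher of two screened. No replicate spread is given; individual values may be noisy. The marker varies much from line to line, for technical or biological reasons.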
Only some of the drugs and lines screened are listed, without regard to their results.
A dash means that no value is listed here.

Compounds and concentrations:
TCS401 (8.33 µM): O=C(O)C(=O)Nc1sc2c(c1C(=O)O)CCNC2
CHIR-265 (0.4 µM): Cn1c(Nc2ccc(C(F)(F)F)cc2)nc2cc(Oc3ccnc(-c4ncc(C(F)(F)F)[nH]4)c3)ccc21
T0901317 (7 µM): O=S(=O)(c1ccccc1)N(CC(F)(F)F)c1ccc(C(O)(C(F)(F)F)C(F)(F)F)cc1
GW0742 (10 µM): Cc1cc(SCc2sc(-c3ccc(C(F)(F)F)c(F)c3)nc2C)ccc1OCC(=O)O
everolimus (0.1 µM): CO[C@H]1C[C@@H]2CC[C@@H](C)[C@@](O)(O2)C(=O)C(=O)N2CCCC[C@H]2C(=O)O[C@H]([C@H](C)C[C@@H]2CC[C@@H](OCCO)[C@H](OC)C2)CC(=O)[C@H](C)/C=C(\C)[C@@H](O)[C@@H](OC)C(=O)[C@H](C)C[C@H](C)/C=C/C=C/C=C/1C
ABT-263 (2 µM): CC1(C)CCC(c2ccc(Cl)cc2)=C(CN2CCN(c3ccc(C(=O)NS(=O)(=O)c4ccc(N[C@H](CCN5CCOCC5)CSc5ccccc5)c(S(=O)(=O)C(F)(F)F)c4)cc3)CC2)C1
docetaxel (0.0005 µM): CC(=O)O[C@@]12CO[C@@H]1C[C@H](O)[C@@]1(C)C(=O)[C@H](O)C3=C(C)[C@@H](OC(=O)[C@H](O)[C@@H](NC(=O)OC(C)(C)C)c4ccccc4)C[C@@](O)([C@@H](OC(=O)c4ccccc4)[C@H]21)C3(C)C
GSK650394 (0.8 µM): O=C(O)c1ccc(-c2c[nH]c3ncc(-c4ccccc4)cc23)cc1C1CCCC1
PF-562271 (0.4 µM): CN(c1ncccc1CNc1nc(Nc2ccc3c(c2)CC(=O)N3)ncc1C(F)(F)F)S(C)(=O)=O

Combination,SK-MEL-28,LOX IMVI,A2058,RPMI-7951,A101D,WM1745
GSK650394 + PF-562271,60.6,172,195,257,112,103
GSK650394 + everolimus,172,97.5,51.7,131,97.8,179
ABT-263 + CHIR-265,705,264,623,555,2130,1100
everolimus + PF-562271,121,74.0,209,67.8,74.0,96.0
docetaxel + everolimus,1260,69.6,2590,334,85.0,248
CHIR-265 + docetaxel,455,157,1050,779,132,362
everolimus + ABT-263,533,522,221,215,375,841
everolimus + GW0742,158,114,85.8,79.3,331,-
T0901317 + docetaxel,1040,60.3,4800,523,278,-
CHIR-265 + GW0742,56.7,427,122,149,144,140
docetaxel + PF-562271,149,79.7,1950,538,324,431
T0901317 + everolimus,179,127,123,99.1,164,-
docetaxel + ABT-263,1520,549,2520,1970,790,3790
GSK650394 + CHIR-265,272,228,172,220,240,189
ABT-263 + GW0742,768,178,273,213,103,-
TCS401 + GSK650394,122,181,147,184,29.5,579
GW0742 + PF-562271,169,125,144,145,148,-
CHIR-265 + T0901317,148,87.7,217,169,83.6,194
PF-562271 + ABT-263,393,142,222,739,124,1760
TCS401 + PF-562271,145,50.2,170,70.3,41.4,-
docetaxel + TCS401,1010,143,1470,752,280,-
TCS401 + GW0742,174,70.9,81.8,38.4,108,122
PF-562271 + CHIR-265,211,86.9,402,277,62.7,224
TCS401 + CHIR-265,158,122,176,253,92.8,241
everolimus + CHIR-265,198,116,387,139,383,168
docetaxel + GW0742,1590,184,5090,733,202,-
ABT-263 + T0901317,1150,140,130,561,379,-
GW0742 + GSK650394,168,42.8,83.4,85.5,41.6,91.7
ABT-263 + GSK650394,887,263,144,209,433,1500
docetaxel + GSK650394,1060,82.9,2480,156,612,227
ABT-263 + TCS401,439,76.3,240,218,249,-
TCS401 + T0901317,60.4,617,57.0,82.3,242,108
T0901317 + GW0742,164,84.0,57.9,180,158,115

Once more, the final 3:

Combination,SK-MEL-28,LOX IMVI,A2058,RPMI-7951,A101D,WM1745
ABT-263 + TCS401,439,76.3,240,218,249,-
TCS401 + T0901317,60.4,617,57.0,82.3,242,108
T0901317 + GW0742,164,84.0,57.9,180,158,115